From publication PMC3984054 (Bioorganic & medicinal chemistry, 2013)

Key:
[1] = system: PrP^Sc in dividing ScN2a-cl3 cells; format: cell-based, mouse; conditions: read-out: EC50 ± SEM (antiprion activity by ELISA)
[2] = system: dividing ScN2a-cl3 cells
[3] = in vitro; conditions: mouse

Work on `Clc1ccc2c(c1)CCc1cccnc1C2=C1CCNCC1` [Desloratidine, reference compound] yielded an EC50 [1] of 6.66 ± 0.56 µM and a CC50 [2] of 9.56 µM.

Compound `CC/C(=C(\c1ccccc1)c1ccc(OCCN(C)C)cc1)c1ccccc1` [Tamoxifen] has an EC50 [3] of 4.3 to 9.6 µM.
